This is an account of results in paper PMC8572004.

Chains of the proteins cited; added tags and fusions are not shown. Lines headed by an entry give the natural chain unless they say otherwise; changes in a name come on top.
UniProt Q9VBP2: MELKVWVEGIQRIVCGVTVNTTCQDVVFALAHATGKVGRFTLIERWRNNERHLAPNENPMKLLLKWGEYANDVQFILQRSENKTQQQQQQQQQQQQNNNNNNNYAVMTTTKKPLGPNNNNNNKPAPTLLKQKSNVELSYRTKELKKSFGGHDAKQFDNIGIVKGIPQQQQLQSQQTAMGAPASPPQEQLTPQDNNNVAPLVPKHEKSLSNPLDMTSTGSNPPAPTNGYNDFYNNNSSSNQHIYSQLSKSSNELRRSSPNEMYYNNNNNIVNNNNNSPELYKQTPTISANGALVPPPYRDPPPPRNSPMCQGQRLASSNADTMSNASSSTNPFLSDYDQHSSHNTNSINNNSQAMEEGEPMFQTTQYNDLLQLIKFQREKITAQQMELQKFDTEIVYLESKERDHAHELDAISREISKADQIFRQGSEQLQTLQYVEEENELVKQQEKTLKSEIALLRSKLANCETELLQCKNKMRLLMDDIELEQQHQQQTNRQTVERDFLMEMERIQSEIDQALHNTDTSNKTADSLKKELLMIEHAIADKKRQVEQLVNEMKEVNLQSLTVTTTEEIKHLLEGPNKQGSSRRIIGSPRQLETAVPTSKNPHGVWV

No constants are given. Whether binding was seen depends on the method and setting. Binding can be weak; no strength is given. For part of these data: In cells and extracts the contact can be indirect. For part of these data: Sequences can lack the tags named with a protein.

Assay [1] deals with full-length Drosophila RASSF8, LexA fusion (two-hybrid bait) (Drosophila) (UniProt Q9VBP2). Put plainly: two-hybrid; screen by Hybrigenics; full-length RASSF8 as LexA fusion in pB29 as bait; Drosophila whole-embryo cDNA collection (RP2) as prey.
Assay [2] has as its target HA-tagged RASSF8 (Drosophila). Put plainly: co-IP; two constructs co-expressed in S2 cells; HEPES lysis buffer (50 mM HEPES pH 7.4, 150 mM NaCl, 0.5% Triton X-100); Protein A/G sepharose and antibodies, 2 h at 4°C; immunoblot. A general note: A western blot detects proteins with antibodies after separation by electrophoresis.

B1: Sec15 (amino acids 59-234), two-hybrid prey (domain or fragment, UniProt Q9VDE6 59-234)
chain: IDSIQELLQVRTQAQQLHNEVHSLDTSLRQISASLIQQGNDLVRARQIESNLASAIEALKSCLPALECYMKFTQQAKNKQYYQALRTLETLETEHLTRLKTHNYRFATQMQIQIPIIKENIRRSSASDFREFLENIRKFSPRIGELAITHTKQLQKRDINAIIAEHMQQMNGGEAG
Regarding B1, the binding entry in assay [1] was “binds”.

B2: Myc-tagged Sec15 (protein, UniProt Q9VDE6 1-766)
chain: MSKVTVQDIEAVDDYWGPTFRSILEGNNTKQIGDQLEQRIRSHDKEIERICNLYYQGFIDSIQELLQVRTQAQQLHNEVHSLDTSLRQISASLIQQGNDLVRARQIESNLASAIEALKSCLPALECYMKFTQQAKNKQYYQALRTLETLETEHLTRLKTHNYRFATQMQIQIPIIKENIRRSSASDFREFLENIRKFSPRIGELAITHTKQLQKRDINAIIAEHMQQMNGGEAGGAGAGGDDDGANVSAQDLIDFSPIYRCLHIYMVLGQREYFEKDYRQQRRDQAKLVLQPPPNMHDNLEAYKTYICAIVGFFVVEDHVKNTAGDVVTSSYLEDLWSSSLTKFVNEISMSSSSCTDPNILLRIKNLIMLSINTFKCYGYTVNILWELLHNMRDHYNEVLLQRWVHVFREILDKEQFLPMVVQNTEEYECIIERFPFHSEQLENAPFPKKFPFSRMVPEVYHQAKEFMYACMKFAEELTLSPNEVAAMVRKAANLLLTRSFSGCLSVVFRQPSITLTQLIQIIIDTQYLEKAGPFLDEFVCHMTNTERSVSQTPSAMFHVARQDAEKQVGLRICSKIDEFFELSAYDWLLVEPPGIASAFITDMISYLKSTFDSFAFKLPHIAQAACRRTFEHIAEKIYSIMYDEDVKQISTGALTQINLDLMQCEFFAASEPVPGLKEGELSKYFLRNRQLLDLLILEEWSTYFHDYGKQENRYHLVQPQSIIVILEKIREADKKPIFSLVRKNDKKKLLETVLKQLKHIADRQN
Regarding B2, in assay [2], the binding entry is “binds”.

B3: Myc-tagged Sec5 (protein, UniProt Q9VQQ9 1-894)
chain: MAPQPVVTGLSPKEGPPGTRVIIRGEFLGTRVQDLIGLKICGSDCLLSAEWKSPNKIIARTGPAKGKGDIIVTTLSGGVGTSTVQFRAYHETIGPLKESAVWIEESPSQNFAWGRRTLAQSGLTQEDPLGLSIEGNEQKIPEDLRDLFPEACGDLSQEHFSPAWFLLENHLATSFEDLKAGLSYLKRKVESQKEGQLSFLKSNAGSVIDQLDTLMNIRDKLQEDVKLHGNETLNILETSIENSISESQKIFTDVLVRKEKADSTRSVLFALSRHKFLFCLPNSVDRRAKAGEYDIVVNDYSRAKNLFGKTEIPIFRKVLEEVDHRILSIRKQLHEKVVKMPQSVEQQKKLIKALISLELQQSGTPIGDKLRNIDPAWDAIEARAKYLEWTFRQTFDQHTSKDSGAQEKAKNRDSSQAPNRVNFCEELCDIAASQLPDLWRLGQLYFTGELRGPHDPKPGDFKRMVLNAIEKFCVYLRLAILIATDQRALRQSSGLAWPIGSASATHQFLPWIPQCLRFTRIAYATLISLDLPSEALDIIQKLIDEVRLFCFSIIFKRATDRCKKLGSQETWELGVEEYPGATLLPAALETLLIETLDEVQSVCMQRETREGNLLEPQSDGQREVTQRLQEFLSAFSAVIEELAFHSHDEETPTHNVSQLLGFPNAQQPDSVAGSGGAAAVTWEQRMLCCLANYAYCNKIFFPRLGDIFVRYGYPLPTLAIETARYTVNQLFTNLLEEYVEHKGDPLVGTIEPSMYLGRFQWDHEMEIGQLRPYAHECCDNLVGVYSEIYSISPALLRPILESIVQTISEELARLMSCVQRFSFTGAIQAHVDIRLLRDSLEGYVNETAKNYFMEALEAINPPLSGEQKRKADEILERVKRNMRLQLLCFSVKDP
As to B3, the binding result in assay [2] was “no binding”.
